Reference: US20090163577A1, “METHODS AND COMPOSITIONS FOR ANTAGONIZING ANTI-APOPTOTIC Bcl-2-FAMILY PROTEINS” (Burnham Institute for Medical Research, priority 2007, published 2009)

System: bax−/− bak−/− MEFs
Assay: Cytotoxicity in bax-/- bak-/- MEFs
Assay type: cell-based, mouse
Details: 20 hrs
Experimental: MEF cells with wild-type (WT) (black symbols) or bax^−/−/bak^−/− (DKO) (white symbols) genotypes were treated with GA (A) or Staurosporine (B) at various concentrations.
Cell Culture, Transfection, and Apoptosis Assays.
GA-induced cytotoxicity is only partly Bcl-2-dependent. Anti-apoptotic Bcl-2-family proteins suppress mitochondria-initiated cell death by inhibiting pro-apoptotic Bcl-2 members Bax and Bak (Kroemer and Reed, Nat. Med. 6:513-519, 2000; Reed, Am. J. Pathol. 157:1415-1430, 2000; Li et al., Cell 116 (2 Suppl.):S57-59, 2 p. following S59). Consequently, when cells are genetically engineered to lack Bax and Bak, then Bcl-2 and related cytoprotective proteins no long display an anti-apoptotic phenotype (Wei et al., Science 292:727-730, 2001). Cells doubly deficient in Bax and Bak therefore provide a context for assessing the mechanism of GA-induced toxicity. GA killed transformed mouse fibroblasts (MEFs) generated from bax+/+ bak+/+ embryos in a concentration-dependent manner (FIG. 6A). […] We conclude therefore that GA induces cytotoxicity through mechanisms that are only partly dependent on Bcl-2-family proteins.

CN[C@@H]1C[C@H]2O[C@@](C)([C@@H]1OC)n1c3ccccc3c3c4c(c5c6ccccc6n2c5c31)C(=O)NC4 [staurosporine, reference compound]
killing of bax−/− bak−/− MEFs: profound block to apoptosis
